Among the data in publication PMC12660846 are binding values, retold here.

Protein sequences, listed by entry. Tags and fused reporters are not part of them. Residues count along the entry.
UniProt P27467, residues 19-352: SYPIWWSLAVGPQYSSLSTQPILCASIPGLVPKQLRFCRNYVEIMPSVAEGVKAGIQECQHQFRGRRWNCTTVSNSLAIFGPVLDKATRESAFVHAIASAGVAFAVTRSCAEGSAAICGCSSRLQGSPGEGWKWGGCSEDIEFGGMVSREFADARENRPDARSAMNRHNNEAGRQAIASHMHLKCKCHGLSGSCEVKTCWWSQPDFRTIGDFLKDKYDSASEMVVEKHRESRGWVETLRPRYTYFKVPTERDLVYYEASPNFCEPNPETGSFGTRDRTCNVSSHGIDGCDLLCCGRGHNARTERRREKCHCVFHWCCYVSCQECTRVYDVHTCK
UniProt Q03135: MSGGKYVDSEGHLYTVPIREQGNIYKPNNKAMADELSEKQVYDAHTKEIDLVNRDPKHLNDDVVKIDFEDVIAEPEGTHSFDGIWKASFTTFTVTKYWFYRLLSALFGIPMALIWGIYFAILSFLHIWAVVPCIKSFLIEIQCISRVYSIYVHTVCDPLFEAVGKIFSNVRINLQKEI
UniProt O43795: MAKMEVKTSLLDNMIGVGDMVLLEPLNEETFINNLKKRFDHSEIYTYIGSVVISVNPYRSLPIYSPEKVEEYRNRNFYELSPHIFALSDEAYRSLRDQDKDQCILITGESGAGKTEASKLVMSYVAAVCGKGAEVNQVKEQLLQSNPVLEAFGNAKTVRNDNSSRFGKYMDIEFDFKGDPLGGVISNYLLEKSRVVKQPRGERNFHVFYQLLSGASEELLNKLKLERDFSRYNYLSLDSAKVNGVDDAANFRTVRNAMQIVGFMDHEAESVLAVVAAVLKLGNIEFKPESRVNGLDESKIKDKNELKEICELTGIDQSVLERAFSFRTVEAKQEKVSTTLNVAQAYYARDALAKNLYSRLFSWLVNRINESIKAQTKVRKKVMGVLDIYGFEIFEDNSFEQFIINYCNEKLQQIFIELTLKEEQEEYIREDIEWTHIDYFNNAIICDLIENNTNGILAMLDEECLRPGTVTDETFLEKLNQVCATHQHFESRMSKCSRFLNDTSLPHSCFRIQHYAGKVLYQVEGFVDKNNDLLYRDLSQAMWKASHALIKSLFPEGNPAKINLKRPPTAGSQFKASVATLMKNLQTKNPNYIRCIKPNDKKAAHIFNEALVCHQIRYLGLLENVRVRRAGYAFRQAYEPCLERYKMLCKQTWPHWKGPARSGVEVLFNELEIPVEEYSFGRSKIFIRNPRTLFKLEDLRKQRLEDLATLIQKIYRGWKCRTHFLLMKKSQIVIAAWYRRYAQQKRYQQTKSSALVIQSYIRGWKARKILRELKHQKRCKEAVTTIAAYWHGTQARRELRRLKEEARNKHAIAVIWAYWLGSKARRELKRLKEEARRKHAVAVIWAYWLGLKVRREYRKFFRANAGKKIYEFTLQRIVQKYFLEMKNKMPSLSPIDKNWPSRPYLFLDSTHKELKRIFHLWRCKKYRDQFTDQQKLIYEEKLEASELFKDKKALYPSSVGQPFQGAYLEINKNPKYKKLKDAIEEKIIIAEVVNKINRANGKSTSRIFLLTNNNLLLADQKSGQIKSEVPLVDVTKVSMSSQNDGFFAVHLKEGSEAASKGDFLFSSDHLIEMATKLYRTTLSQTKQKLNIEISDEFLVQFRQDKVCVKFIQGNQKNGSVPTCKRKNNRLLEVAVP
UniProt Q14980: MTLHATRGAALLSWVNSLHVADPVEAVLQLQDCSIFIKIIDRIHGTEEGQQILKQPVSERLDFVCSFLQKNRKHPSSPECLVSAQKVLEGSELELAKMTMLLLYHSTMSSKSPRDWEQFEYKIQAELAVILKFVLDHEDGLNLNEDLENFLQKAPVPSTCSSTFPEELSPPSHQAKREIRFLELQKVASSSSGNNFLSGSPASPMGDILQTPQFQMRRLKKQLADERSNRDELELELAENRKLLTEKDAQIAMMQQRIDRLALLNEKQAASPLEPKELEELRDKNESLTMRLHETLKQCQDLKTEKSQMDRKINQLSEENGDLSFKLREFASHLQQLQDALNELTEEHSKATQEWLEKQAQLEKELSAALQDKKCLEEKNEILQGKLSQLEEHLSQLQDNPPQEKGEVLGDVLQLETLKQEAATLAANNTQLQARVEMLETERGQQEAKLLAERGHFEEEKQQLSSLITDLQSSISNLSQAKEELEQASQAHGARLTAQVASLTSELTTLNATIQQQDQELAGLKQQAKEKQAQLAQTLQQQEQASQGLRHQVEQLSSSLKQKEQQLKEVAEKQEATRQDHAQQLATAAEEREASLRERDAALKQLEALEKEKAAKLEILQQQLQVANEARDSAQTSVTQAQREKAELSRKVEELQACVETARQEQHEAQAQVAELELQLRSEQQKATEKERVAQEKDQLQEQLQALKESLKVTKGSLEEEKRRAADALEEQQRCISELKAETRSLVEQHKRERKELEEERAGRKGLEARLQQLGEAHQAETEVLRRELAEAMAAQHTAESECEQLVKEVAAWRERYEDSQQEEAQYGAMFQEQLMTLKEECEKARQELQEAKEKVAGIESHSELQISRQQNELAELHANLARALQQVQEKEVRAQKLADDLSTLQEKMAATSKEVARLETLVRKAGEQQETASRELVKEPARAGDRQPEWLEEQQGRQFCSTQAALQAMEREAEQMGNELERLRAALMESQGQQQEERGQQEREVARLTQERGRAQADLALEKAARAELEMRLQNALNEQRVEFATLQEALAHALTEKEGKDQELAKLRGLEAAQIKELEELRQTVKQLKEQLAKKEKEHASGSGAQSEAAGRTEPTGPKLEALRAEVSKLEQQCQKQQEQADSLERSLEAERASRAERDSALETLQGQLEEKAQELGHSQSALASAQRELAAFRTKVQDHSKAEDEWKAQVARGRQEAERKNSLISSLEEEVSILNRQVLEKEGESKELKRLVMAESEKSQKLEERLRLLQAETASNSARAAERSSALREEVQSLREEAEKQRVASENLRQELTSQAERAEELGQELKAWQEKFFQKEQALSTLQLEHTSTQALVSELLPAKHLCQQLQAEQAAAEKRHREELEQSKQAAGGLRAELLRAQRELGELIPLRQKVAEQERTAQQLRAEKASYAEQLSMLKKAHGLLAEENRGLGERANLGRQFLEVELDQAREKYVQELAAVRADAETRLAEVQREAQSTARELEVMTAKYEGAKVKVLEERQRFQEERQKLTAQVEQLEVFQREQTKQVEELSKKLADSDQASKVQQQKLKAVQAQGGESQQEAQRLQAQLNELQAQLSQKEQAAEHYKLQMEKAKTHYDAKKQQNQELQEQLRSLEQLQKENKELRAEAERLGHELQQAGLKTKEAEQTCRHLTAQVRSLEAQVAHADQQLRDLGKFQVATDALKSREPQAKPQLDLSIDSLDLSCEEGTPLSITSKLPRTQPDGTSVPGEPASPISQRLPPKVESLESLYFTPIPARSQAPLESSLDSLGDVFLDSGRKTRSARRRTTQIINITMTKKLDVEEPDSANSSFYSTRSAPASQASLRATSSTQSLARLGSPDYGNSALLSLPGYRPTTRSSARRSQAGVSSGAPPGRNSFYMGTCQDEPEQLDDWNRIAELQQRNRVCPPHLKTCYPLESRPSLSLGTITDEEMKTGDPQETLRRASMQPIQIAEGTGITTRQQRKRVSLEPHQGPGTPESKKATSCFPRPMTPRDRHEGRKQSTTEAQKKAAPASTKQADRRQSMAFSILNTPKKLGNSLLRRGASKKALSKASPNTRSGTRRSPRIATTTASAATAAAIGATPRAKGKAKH

Results are given in words; binding and its absence hold for the method and conditions named. In cells and extracts the contact can be indirect. Some results given as binding are weak or reduced against the parent protein; the word gives no strength. For some assays here: Where a sequence is shown, tags or fusion partners need not be part of it.

The target of one assay is murine Wnt3a (mouse) (UniProt P27467). Kind of assay: pull-down; murine Wnt3a covalently immobilised on magnetic Dynabeads, added to live metaphase HeLa cells; lysis in 75 mM Na-HEPES pH 7.5, 0.15 M KCl, 0.2% NP-40 without clearing, magnetic isolation, 3 washes; immunoblot; BSA-coated beads as control; only the target purified. (A western blot detects proteins with antibodies after separation by electrophoresis.)

Assay [1] deals with LRP6-FLAG-APEX2 (UniProt O75581). Kind of assay: condition: only cells treated with DKK1-conditioned medium (Wnt-OFF); co-IP; anti-FLAG M2 beads on mitotic lysate of HeLa clone expressing LRP6-FLAG-APEX2, cells treated with DKK1-conditioned medium (Wnt-OFF) for 3 h; 150 mM KCl, 0.2% NP-40, 4 h at 4 °C; immunoblot.
The target in assay [2] is LRP6-M5 mutant (EGFP-tagged, sh-resistant) (human) (UniProt O75581). Description: co-IP; anti-GFP mAb-agarose beads on mitotic lysate of HeLa cells (shLRP6) transfected with pEGFP-N1-LRP6-WT or M5, treated with Wnt3a-conditioned medium; 150 mM KCl, 0.2% NP-40, 2 h at 4 °C; immunoblot.
Assay [3] has as its target LRP6-FLAG-APEX2 (UniProt O75581). Description: co-IP; anti-FLAG M2 beads on mitotic lysate of HeLa clone expressing LRP6-FLAG-APEX2, cells treated with Wnt3a-conditioned medium (Wnt-ON) for 3 h; 150 mM KCl, 0.2% NP-40, 4 h at 4 °C; immunoblot.
Assay [4] addresses sh-resistant EGFP-tagged LRP6 wild-type (human) (UniProt O75581). Kind of assay: co-IP; anti-GFP mAb-agarose beads on mitotic lysate of HeLa cells (shLRP6) transfected with pEGFP-N1-LRP6-WT or M5, treated with Wnt3a-conditioned medium; 150 mM KCl, 0.2% NP-40, 2 h at 4 °C; immunoblot.
The next assay concerns the target T1, LRP6-FLAG-APEX2, O75581.
T1 chain: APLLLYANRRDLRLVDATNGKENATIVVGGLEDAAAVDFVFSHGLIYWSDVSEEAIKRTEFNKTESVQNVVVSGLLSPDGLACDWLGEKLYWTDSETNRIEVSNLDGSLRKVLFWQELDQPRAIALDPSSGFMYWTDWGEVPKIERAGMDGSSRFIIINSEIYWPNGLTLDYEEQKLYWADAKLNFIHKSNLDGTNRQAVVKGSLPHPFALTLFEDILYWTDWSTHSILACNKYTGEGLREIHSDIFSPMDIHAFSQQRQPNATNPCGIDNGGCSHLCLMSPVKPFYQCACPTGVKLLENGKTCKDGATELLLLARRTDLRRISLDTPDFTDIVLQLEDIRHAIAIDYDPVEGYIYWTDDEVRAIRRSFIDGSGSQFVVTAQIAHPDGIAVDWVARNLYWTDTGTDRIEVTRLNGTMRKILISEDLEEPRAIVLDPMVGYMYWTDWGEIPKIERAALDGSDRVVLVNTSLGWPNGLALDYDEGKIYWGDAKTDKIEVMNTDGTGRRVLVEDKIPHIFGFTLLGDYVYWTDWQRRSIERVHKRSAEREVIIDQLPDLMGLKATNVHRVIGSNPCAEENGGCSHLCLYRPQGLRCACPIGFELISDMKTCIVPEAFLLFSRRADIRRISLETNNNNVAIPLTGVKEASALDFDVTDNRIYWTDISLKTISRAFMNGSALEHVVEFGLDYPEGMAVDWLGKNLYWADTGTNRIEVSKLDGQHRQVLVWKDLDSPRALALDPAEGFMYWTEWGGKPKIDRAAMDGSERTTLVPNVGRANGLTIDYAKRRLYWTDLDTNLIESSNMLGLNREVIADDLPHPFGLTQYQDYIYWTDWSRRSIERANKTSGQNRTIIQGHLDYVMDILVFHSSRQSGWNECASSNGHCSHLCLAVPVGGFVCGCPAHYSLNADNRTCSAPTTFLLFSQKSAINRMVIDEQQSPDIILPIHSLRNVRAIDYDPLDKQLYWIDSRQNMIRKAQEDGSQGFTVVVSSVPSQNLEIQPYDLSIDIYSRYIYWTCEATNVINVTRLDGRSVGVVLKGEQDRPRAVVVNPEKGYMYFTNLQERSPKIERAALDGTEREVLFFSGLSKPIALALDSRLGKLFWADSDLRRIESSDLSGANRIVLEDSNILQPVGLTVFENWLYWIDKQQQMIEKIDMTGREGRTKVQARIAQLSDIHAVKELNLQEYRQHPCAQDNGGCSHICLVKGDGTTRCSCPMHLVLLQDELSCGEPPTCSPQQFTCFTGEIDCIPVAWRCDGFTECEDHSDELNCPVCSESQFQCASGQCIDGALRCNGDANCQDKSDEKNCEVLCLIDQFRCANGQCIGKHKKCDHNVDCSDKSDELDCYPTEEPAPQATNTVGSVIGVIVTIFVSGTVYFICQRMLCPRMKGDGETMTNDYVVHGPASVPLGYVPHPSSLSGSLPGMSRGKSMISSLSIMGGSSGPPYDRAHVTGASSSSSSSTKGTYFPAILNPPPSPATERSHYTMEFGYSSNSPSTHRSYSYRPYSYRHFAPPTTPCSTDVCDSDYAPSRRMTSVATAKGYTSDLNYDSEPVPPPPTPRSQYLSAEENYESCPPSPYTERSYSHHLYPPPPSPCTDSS
Description: co-IP; anti-FLAG M2 beads on mitotic lysate of HeLa clone expressing LRP6-FLAG-APEX2, cells treated with Wnt3a-conditioned medium (Wnt-ON) for 3 h; 150 mM KCl, 0.2% NP-40, 4 h at 4 °C; immunoblot. To be noted: remark: other sources report otherwise.

Assay [5] deals with T2, sh-resistant EGFP-tagged LRP6 wild-type (human), O75581.
T2 chain: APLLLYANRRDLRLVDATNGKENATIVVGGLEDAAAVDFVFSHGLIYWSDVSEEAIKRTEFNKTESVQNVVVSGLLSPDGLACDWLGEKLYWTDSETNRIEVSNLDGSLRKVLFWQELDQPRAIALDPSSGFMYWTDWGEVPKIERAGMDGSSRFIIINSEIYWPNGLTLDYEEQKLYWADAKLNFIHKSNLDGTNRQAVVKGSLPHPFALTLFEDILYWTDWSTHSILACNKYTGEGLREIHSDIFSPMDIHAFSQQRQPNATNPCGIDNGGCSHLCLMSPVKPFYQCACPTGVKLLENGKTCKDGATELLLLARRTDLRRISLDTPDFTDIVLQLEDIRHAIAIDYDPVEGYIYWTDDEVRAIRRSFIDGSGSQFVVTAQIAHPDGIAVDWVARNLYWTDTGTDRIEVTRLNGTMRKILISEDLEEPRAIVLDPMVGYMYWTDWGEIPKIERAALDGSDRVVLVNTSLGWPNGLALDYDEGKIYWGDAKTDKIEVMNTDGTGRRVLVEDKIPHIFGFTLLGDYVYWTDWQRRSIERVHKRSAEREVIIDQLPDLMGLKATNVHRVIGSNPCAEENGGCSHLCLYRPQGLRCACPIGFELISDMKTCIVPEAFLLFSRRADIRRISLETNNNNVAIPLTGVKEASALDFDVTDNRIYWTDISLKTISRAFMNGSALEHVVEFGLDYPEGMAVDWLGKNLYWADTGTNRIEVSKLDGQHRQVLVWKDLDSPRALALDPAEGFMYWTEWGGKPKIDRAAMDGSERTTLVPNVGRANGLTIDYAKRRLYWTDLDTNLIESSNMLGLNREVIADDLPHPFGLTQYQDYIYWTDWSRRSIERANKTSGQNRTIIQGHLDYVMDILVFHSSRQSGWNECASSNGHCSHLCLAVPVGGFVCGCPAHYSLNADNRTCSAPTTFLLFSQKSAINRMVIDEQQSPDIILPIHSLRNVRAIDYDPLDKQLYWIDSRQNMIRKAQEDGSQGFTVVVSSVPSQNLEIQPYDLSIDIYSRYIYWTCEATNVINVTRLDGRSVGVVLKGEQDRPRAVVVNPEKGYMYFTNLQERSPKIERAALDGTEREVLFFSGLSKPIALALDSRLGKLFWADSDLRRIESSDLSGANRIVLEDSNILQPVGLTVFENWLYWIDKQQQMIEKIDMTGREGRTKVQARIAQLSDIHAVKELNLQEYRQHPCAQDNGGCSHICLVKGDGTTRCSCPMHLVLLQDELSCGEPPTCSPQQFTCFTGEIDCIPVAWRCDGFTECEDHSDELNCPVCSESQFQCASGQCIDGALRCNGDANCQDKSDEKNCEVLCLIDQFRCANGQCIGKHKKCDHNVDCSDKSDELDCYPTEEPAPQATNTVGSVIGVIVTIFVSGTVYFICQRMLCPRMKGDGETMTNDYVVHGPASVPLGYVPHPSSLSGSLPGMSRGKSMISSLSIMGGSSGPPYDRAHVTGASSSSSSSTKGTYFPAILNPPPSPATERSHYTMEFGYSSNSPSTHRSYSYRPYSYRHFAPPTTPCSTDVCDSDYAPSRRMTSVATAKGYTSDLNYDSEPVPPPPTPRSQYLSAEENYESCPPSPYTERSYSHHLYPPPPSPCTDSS
Description: co-IP; anti-GFP mAb-agarose beads on mitotic lysate of HeLa cells (shLRP6) transfected with pEGFP-N1-LRP6-WT or M5, treated with Wnt3a-conditioned medium; 150 mM KCl, 0.2% NP-40, 2 h at 4 °C; immunoblot. The settings on record: remark: other sources report otherwise.

In the case of caveolin-1 (from UniProt Q03135 1-178), in the assay with murine Wnt3a (mouse), the binding result was “binds”.
Same read-out and setting: in the case of MACF1 (from UniProt Q9UPN3 1-7388) it was “binds”.
For the molecule β-catenin (from UniProt P35222 1-781), the binding entry (with LRP6-FLAG-APEX2 [1]; in assay [2]) was “no binding” throughout.
For myosin1B (from UniProt O43795 1-1136), in the assay with murine Wnt3a (mouse), the binding result is “binds”.
For the molecule “dynactin subunit p150^Glue (from UniProt Q14203-1 1-1278)”, the binding entry in the assay with murine Wnt3a (mouse) is listed as “binds”.
With “nuclear mitotic apparatus protein (NuMA) (from UniProt Q14980 1-2115)”, the binding entry is “binds” with LRP6-FLAG-APEX2 [3]; “binds” with murine Wnt3a (mouse); “no binding” with LRP6-FLAG-APEX2 [1]; “no binding” in assay [2]; “binds” in assay [4].

B1: β-catenin, P35222 1-781 (protein)
chain: MATQADLMELDMAMEPDRKAAVSHWQQQSYLDSGIHSGATTTAPSLSGKGNPEEEDVDTSQVLYEWEQGFSQSFTQEQVADIDGQYAMTRAQRVRAAMFPETLDEGMQIPSTQFDAAHPTNVQRLAEPSQMLKHAVVNLINYQDDAELATRAIPELTKLLNDEDQVVVNKAAVMVHQLSKKEASRHAIMRSPQMVSAIVRTMQNTNDVETARCTAGTLHNLSHHREGLLAIFKSGGIPALVKMLGSPVDSVLFYAITTLHNLLLHQEGAKMAVRLAGGLQKMVALLNKTNVKFLAITTDCLQILAYGNQESKLIILASGGPQALVNIMRTYTYEKLLWTTSRVLKVLSVCSSNKPAIVEAGGMQALGLHLTDPSQRLVQNCLWTLRNLSDAATKQEGMEGLLGTLVQLLGSDDINVVTCAAGILSNLTCNNYKNKMMVCQVGGIEALVRTVLRAGDREDITEPAICALRHLTSRHQEAEMAQNAVRLHYGLPVVVKLLHPPSHWPLIKATVGLIRNLALCPANHAPLREQGAIPRLVQLLVRAHQDTQRRTSMGGTQQQFVEGVRMEEIVEGCTGALHILARDVHNRIVIRGLNTIPLFVQLLYSPIENIQRVAAGVLCELAQDKEAAEAIEAEGATAPLTELLHSRNEGVATYAAAVLFRMSEDKPQDYKKRLSVELTSSLFRTEPMAWNETADLGLDIGAQGEPLGYRQDDPSYRSFHSGGYGQDALGMDPMMEHEMGGHHPGADYPVDGLPDLGHAQDLMDGLPPGDSNQLAWFDTDL
For the molecule B1, the binding result is “binds” with LRP6-FLAG-APEX2, O75581 and “binds” in assay [5].

B2: LGN (protein, UniProt P81274 1-684)
chain: MEENLISMREDHSFHVRYRMEASCLELALEGERLCKSGDCRAGVSFFEAAVQVGTEDLKTLSAIYSQLGNAYFYLHDYAKALEYHHHDLTLARTIGDQLGEAKASGNLGNTLKVLGNFDEAIVCCQRHLDISRELNDKVGEARALYNLGNVYHAKGKSFGCPGPQDVGEFPEEVRDALQAAVDFYEENLSLVTALGDRAAQGRAFGNLGNTHYLLGNFRDAVIAHEQRLLIAKEFGDKAAERRAYSNLGNAYIFLGEFETASEYYKKTLLLARQLKDRAVEAQSCYSLGNTYTLLQDYEKAIDYHLKHLAIAQELNDRIGEGRACWSLGNAYTALGNHDQAMHFAEKHLEISREVGDKSGELTARLNLSDLQMVLGLSYSTNNSIMSENTEIDSSLNGVRPKLGRRHSMENMELMKLTPEKVQNWNSEILAKQKPLIAKPSAKLLFVNRLKGKKYKTNSSTKVLQDASNSIDHRIPNSQRKISADTIGDEGFFDLLSRFQSNRMDDQRCCLQEKNCHTASTTTSSTPPKMMLKTSSVPVVSPNTDEFLDLLASSQSRRLDDQRASFSNLPGLRLTQNSQSVLSHLMTNDNKEADEDFFDILVKCQGSRLDDQRCAPPPATTKGPTVPDEDFFSLILRSQGKRMDEQRVLLQRDQNRDTDFGLKDFLQNNALLEFKNSGKKSADH
For B2, the binding entry with murine Wnt3a (mouse) was “binds”.
